# Source: the supplement of paper PMC10849652
# By UniProt entry, the sequences of proteins in these tests, tags left out. Where a name states a change or a piece, a line headed by the entry shows the natural chain unless it says otherwise.
# UniProt O60674: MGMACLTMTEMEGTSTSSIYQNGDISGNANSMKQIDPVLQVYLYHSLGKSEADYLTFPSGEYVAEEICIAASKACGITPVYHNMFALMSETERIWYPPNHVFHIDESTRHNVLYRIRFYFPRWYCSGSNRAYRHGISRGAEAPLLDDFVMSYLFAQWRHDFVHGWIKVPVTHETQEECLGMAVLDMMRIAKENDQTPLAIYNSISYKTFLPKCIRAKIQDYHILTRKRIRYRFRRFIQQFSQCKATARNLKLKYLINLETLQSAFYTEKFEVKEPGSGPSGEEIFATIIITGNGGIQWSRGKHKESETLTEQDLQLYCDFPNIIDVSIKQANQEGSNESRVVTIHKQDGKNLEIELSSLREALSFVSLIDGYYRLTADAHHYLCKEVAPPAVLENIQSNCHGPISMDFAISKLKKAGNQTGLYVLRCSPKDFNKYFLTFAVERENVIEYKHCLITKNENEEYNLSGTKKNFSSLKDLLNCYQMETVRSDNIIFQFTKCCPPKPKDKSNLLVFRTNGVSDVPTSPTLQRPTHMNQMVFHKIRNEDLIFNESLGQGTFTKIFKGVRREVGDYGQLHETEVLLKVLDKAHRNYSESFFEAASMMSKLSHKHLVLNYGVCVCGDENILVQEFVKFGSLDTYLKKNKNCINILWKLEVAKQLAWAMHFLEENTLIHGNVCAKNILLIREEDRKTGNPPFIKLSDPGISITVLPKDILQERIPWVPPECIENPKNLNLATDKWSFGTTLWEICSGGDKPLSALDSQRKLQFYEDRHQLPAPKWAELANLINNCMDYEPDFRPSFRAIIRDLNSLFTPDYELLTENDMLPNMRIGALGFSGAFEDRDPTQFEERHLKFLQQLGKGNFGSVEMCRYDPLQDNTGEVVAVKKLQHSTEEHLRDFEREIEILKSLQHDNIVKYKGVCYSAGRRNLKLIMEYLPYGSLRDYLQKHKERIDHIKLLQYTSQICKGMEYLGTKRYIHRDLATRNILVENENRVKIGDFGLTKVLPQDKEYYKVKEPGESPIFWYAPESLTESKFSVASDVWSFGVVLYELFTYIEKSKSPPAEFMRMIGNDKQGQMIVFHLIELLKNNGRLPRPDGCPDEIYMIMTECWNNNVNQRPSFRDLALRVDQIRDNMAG
# UniProt Q92830, whole entry, looked up: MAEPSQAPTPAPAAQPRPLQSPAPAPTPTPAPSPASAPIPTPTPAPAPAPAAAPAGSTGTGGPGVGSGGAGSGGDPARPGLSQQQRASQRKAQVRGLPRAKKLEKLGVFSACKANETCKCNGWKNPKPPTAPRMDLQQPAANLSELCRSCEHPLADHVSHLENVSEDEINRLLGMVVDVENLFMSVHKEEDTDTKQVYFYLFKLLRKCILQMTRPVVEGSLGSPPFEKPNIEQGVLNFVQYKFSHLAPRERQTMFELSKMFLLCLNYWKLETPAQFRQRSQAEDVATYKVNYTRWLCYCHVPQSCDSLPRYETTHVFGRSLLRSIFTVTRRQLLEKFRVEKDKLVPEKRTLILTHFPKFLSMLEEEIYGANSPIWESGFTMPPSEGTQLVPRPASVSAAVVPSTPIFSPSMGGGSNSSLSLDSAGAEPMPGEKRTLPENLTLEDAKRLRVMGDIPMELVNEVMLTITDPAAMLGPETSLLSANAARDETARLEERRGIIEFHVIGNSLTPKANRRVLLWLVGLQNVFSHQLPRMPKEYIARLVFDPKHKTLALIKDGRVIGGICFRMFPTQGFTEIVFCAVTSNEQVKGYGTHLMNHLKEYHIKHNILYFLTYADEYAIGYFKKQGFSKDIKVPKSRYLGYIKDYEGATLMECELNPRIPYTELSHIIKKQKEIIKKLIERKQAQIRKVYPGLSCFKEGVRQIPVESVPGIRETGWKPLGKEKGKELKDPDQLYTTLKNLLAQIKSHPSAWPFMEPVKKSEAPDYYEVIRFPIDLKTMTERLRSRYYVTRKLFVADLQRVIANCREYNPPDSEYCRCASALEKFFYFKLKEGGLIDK
# UniProt Q14573, whole entry, looked up: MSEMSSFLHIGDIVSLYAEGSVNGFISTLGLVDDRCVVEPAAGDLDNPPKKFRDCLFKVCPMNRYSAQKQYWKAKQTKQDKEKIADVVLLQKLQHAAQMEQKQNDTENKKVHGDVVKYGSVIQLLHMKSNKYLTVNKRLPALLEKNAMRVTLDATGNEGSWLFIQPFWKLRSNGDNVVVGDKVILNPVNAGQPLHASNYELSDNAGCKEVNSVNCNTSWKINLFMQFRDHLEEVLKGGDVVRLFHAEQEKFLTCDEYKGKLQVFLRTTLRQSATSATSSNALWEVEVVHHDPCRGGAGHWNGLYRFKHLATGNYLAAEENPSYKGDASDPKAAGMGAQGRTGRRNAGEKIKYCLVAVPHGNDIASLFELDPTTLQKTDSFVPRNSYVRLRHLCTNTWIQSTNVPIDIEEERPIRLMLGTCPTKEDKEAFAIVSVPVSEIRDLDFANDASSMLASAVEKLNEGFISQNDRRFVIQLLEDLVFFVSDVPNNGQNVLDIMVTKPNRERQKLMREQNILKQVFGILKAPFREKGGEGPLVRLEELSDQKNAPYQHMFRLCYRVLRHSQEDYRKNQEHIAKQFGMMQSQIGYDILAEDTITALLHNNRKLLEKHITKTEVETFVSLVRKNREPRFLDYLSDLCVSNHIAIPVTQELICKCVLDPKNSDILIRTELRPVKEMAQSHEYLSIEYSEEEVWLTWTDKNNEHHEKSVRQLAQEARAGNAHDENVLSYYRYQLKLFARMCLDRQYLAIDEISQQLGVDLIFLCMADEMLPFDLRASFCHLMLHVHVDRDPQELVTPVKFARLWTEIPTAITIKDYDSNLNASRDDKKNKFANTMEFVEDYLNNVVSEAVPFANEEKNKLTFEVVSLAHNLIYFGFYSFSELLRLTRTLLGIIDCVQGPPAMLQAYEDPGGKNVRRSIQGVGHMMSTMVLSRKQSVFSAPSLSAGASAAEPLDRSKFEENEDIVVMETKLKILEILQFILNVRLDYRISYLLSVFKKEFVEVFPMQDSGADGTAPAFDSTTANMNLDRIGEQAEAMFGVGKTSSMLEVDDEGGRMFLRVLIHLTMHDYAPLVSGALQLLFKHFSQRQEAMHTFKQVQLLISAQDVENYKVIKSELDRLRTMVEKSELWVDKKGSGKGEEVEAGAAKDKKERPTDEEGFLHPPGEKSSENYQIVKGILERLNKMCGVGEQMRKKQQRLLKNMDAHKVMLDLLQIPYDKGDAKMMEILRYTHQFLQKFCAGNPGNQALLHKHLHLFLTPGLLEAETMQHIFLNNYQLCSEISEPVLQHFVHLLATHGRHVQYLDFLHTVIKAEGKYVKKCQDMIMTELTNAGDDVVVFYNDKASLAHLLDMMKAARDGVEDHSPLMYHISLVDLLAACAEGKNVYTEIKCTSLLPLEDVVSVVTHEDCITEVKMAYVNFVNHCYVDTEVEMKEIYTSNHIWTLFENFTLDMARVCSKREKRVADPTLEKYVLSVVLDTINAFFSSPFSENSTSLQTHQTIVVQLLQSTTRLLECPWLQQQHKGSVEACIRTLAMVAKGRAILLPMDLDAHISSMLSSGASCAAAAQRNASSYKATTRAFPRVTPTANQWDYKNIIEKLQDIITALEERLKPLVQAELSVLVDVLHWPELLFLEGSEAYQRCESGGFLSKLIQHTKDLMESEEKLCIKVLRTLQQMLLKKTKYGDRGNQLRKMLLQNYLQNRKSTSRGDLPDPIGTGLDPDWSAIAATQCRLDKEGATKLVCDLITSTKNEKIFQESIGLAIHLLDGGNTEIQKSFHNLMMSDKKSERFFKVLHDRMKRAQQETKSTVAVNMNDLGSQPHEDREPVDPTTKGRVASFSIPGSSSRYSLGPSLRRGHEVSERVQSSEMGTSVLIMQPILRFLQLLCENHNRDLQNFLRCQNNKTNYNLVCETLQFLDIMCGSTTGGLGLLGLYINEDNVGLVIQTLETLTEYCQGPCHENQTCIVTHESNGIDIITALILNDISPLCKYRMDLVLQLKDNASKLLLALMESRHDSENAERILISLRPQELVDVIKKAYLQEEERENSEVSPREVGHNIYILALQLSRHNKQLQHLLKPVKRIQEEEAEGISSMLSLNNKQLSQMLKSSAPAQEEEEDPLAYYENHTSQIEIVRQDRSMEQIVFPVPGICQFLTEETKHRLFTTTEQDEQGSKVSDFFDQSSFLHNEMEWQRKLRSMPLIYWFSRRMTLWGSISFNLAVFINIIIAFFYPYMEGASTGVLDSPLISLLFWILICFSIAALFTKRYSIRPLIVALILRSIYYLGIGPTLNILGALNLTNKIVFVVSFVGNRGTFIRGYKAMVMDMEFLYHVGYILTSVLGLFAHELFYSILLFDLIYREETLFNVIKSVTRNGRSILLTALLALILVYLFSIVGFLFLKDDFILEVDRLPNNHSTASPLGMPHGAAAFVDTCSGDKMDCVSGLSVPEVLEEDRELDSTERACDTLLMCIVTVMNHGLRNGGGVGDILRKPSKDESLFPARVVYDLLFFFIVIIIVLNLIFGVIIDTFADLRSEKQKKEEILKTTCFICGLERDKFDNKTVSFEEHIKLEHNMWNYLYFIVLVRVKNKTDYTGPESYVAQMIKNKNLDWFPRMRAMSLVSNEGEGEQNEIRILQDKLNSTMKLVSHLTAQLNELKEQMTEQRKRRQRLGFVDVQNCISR
# UniProt Q9H910: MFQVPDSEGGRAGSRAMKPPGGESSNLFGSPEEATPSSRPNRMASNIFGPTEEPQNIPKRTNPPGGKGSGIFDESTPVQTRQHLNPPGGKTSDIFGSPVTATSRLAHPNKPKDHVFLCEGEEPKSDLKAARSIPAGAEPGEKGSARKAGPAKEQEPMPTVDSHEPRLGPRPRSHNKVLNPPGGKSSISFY
# UniProt Q9Y287, whole entry, looked up: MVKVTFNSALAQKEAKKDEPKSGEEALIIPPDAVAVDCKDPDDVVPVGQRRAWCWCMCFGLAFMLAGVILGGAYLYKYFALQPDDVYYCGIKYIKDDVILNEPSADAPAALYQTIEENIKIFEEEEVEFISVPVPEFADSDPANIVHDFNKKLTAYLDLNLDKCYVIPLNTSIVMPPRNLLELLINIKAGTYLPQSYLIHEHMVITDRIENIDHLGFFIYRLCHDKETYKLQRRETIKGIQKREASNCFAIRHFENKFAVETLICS
# UniProt Q96A47: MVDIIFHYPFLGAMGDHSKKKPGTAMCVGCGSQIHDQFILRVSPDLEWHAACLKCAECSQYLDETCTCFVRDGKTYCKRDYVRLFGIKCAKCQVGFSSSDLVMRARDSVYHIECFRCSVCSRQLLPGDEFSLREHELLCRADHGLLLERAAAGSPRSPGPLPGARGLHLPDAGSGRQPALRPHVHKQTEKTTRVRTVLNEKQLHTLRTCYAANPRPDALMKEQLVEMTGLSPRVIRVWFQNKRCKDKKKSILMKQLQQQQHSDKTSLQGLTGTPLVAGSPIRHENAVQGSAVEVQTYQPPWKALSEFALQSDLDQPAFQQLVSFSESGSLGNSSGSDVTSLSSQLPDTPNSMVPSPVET
# UniProt P05412, whole entry, looked up: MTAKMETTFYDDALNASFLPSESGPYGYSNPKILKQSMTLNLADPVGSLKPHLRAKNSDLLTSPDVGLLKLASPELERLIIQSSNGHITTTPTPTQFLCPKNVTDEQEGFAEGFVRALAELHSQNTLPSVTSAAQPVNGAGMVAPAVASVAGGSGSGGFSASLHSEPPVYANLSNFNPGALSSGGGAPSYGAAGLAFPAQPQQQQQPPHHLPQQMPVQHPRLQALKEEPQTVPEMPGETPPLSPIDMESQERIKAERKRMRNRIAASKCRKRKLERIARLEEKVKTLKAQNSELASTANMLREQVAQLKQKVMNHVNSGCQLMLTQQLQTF
# UniProt Q86V97: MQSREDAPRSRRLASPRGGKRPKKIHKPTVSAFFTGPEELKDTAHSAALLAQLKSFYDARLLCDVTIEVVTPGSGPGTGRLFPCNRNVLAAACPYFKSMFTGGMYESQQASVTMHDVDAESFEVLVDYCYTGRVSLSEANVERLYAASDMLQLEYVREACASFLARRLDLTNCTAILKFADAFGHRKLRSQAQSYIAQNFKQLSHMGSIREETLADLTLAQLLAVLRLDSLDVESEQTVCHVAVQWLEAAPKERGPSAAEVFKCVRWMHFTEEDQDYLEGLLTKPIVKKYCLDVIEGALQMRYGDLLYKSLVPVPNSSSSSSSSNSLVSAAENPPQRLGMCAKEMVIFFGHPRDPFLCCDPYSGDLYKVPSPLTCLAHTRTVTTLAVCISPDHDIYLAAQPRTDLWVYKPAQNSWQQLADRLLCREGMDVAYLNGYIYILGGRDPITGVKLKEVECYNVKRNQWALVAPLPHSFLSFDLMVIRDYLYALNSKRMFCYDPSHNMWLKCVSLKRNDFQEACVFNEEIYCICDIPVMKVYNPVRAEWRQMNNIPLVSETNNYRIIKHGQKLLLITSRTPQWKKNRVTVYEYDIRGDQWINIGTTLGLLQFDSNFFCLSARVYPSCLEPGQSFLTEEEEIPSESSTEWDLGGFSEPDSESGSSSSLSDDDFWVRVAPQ
# This is one part of the list.
# Key:
# Test in all cases: log2 fold change, soluble protein after heating vs DMSO (PISA); higher = thermal stabilisation; K562 lysate, 10 uM; active = over 0.2 and 3.5 SD of the protein, either way, in both replicates (recomputed)
# [1] = compound: CCn1c(C(=O)N(C2CC2)C2CC2)cc2c3c(ncn3C)c(Nc3cc(C)n(C)n3)nc21
# How it was run: (§1)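 Values give the log-two fold change in thermal stability against solvent controls, from duplicates. Crude K562 extract at 1 mg/mL protein, made by dounce homogenisation in PBS pH 7.4 with 1 mM MgCl2, was treated with 10 μM compound for 30 min. After 3 min heating across 48°C-58°C, aliquots were pooled, adjusted to 0.5% NP-40 at 4°C and centrifuged at 21,000xg for 90 min. The supernatant was measured by TMTpro 16plex LC-MS/MS with channel sums equalised.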
# saracatinib = compound: CN1CCN(CCOc2cc(OC3CCOCC3)c3c(Nc4c(Cl)ccc5c4OCO5)ncnc3c2)CC1 [saracatinib]
# How it was run: as §1
# [2] = compound: CCn1cc(-c2ccnc3[nH]c(-c4cccc(CN(C)C)c4)cc23)c(-c2ccc(NC(=O)N(C)C)cc2)n1
# How it was run: as §1
# [3] = compound: CN1CCC(CNc2ccc3ncc(-c4cccc(OC(F)(F)F)c4)n3n2)CC1
# How it was run: as §1
# sotrastaurin = compound: CN1CCN(c2nc(C3=C(c4c[nH]c5ccccc45)C(=O)NC3=O)c3ccccc3n2)CC1 [sotrastaurin]
# How it was run: as §1
# [4] = compound: CCCS(=O)(=O)Nc1ccc(F)c(C(=O)c2c[nH]c3ncc(Cl)cc23)c1F
# How it was run: as §1
# barasertib = compound: CCN(CCCOc1ccc2c(Nc3cc(CC(=O)Nc4cccc(F)c4)[nH]n3)ncnc2c1)CCOP(=O)(O)O [barasertib]
# How it was run: as §1
# [5] = compound: CC[C@@H]1C(=O)N(C)c2cnc(Nc3ccc(C(=O)NC4CCN(C)CC4)cc3OC)nc2N1C1CCCC1
# How it was run: as §1
# volasertib = compound: CC[C@@H]1C(=O)N(C)c2cnc(Nc3ccc(C(=O)N[C@H]4CC[C@H](N5CCN(CC6CC6)CC5)CC4)cc3OC)nc2N1C(C)C [volasertib]
# How it was run: as §1
# vemurafenib = compound: CCCS(=O)(=O)Nc1ccc(F)c(C(=O)c2c[nH]c3ncc(-c4ccc(Cl)cc4)cc23)c1F [vemurafenib]
# How it was run: as §1
target,measurement,setting,value
IRF9 (UniProt Q00978),log2 fold change,[1],inactive: 0.256
same,log2 fold change,saracatinib,inactive: 0.149
ITGB3BP isoform 5 (UniProt Q13352),log2 fold change,[1],inactive: 0.105
same,log2 fold change,[2],inactive: 0.005
same,log2 fold change,[3],inactive: -0.025
same,log2 fold change,sotrastaurin,inactive: -0.1
JAG2 (UniProt Q9Y219),log2 fold change,[4],inactive: -0.051
same,log2 fold change,barasertib,inactive: -0.035
same,log2 fold change,[5],inactive: 0.106
same,log2 fold change,volasertib,inactive: 0.142
same,log2 fold change,[1],inactive: -0.061
same,log2 fold change,[2],inactive: 0.253
same,log2 fold change,[3],inactive: 0.099
same,log2 fold change,saracatinib,inactive: 0.007
same,log2 fold change,sotrastaurin,inactive: -0.032
JAK2 (UniProt O60674),log2 fold change,vemurafenib,inactive: -0.054
same,log2 fold change,[1],inactive: -0.045
same,log2 fold change,[2],inactive: 0.027
same,log2 fold change,[3],inactive: 0.133
same,log2 fold change,saracatinib,inactive: -0.113
KAT2A (UniProt Q92830),log2 fold change,[4],inactive: -0.081
same,log2 fold change,[5],inactive: -0.18
same,log2 fold change,volasertib,inactive: -0.076
same,log2 fold change,[1],inactive: 0.168
same,log2 fold change,[2],inactive: 0.027
same,log2 fold change,[3],inactive: 0.061
same,log2 fold change,saracatinib,inactive: -0.099
same,log2 fold change,sotrastaurin,inactive: 0.034
KCTD16 (UniProt Q68DU8),log2 fold change,sotrastaurin,inactive: -0.1
JMY (UniProt Q8N9B5),log2 fold change,barasertib,inactive: 0.098
same,log2 fold change,[1],inactive: -0.202
same,log2 fold change,[2],inactive: -0.089
same,log2 fold change,[3],inactive: 0.009
same,log2 fold change,saracatinib,inactive: 0.1
same,log2 fold change,sotrastaurin,inactive: 0.057
ITM2C (UniProt Q9NQX7),log2 fold change,[4],inactive: -0.207
same,log2 fold change,barasertib,inactive: 0.149
same,log2 fold change,[5],inactive: -0.046
same,log2 fold change,volasertib,inactive: 0.165
same,log2 fold change,[1],inactive: 0.077
same,log2 fold change,saracatinib,inactive: 0.005
same,log2 fold change,sotrastaurin,inactive: -0.063
INTU (UniProt Q9ULD6),log2 fold change,vemurafenib,inactive: 0.182
same,log2 fold change,[1],inactive: 0.144
KCNN4 (UniProt O15554),log2 fold change,[4],inactive: -0.212
same,log2 fold change,volasertib,inactive: -0.188
same,log2 fold change,[1],inactive: 0.139
same,log2 fold change,[2],inactive: -0.061
same,log2 fold change,[3],inactive: -0.217
same,log2 fold change,sotrastaurin,inactive: 0.082
KALRN (UniProt O60229),log2 fold change,[2],inactive: -0.193
same,log2 fold change,[3],inactive: 0.127
same,log2 fold change,sotrastaurin,inactive: 0.051
KANSL1 (UniProt Q7Z3B3),log2 fold change,[4],inactive: -0.084
same,log2 fold change,[5],inactive: -0.208
same,log2 fold change,volasertib,inactive: -0.048
same,log2 fold change,[1],inactive: 0.047
same,log2 fold change,[2],inactive: -0.169
same,log2 fold change,[3],inactive: -0.03
same,log2 fold change,saracatinib,inactive: -0.116
JADE2 (UniProt Q9NQC1),log2 fold change,[5],inactive: -0.357
same,log2 fold change,[2],inactive: 0.242
same,log2 fold change,[3],inactive: -0.124
same,log2 fold change,saracatinib,inactive: 0.115
KDM2B (UniProt Q8NHM5),log2 fold change,[5],inactive: 0.106
same,log2 fold change,[1],inactive: -0.074
same,log2 fold change,sotrastaurin,inactive: 0.027
ITPRID2 (UniProt P28290),log2 fold change,[4],inactive: 0.012
same,log2 fold change,barasertib,inactive: -0.051
same,log2 fold change,[5],inactive: 0.038
same,log2 fold change,volasertib,inactive: 0.026
same,log2 fold change,[1],inactive: 0.059
same,log2 fold change,[2],inactive: 0.13
same,log2 fold change,[3],inactive: -0.068
KCTD13 (UniProt Q8WZ19),log2 fold change,barasertib,inactive: -0.186
same,log2 fold change,[1],inactive: -0.143
same,log2 fold change,saracatinib,inactive: 0.076
same,log2 fold change,sotrastaurin,inactive: 0.033
KAZN isoform 3 (UniProt Q674X7),log2 fold change,barasertib,inactive: -0.045
same,log2 fold change,[1],inactive: -0.051
same,log2 fold change,[2],inactive: -0.02
same,log2 fold change,[3],inactive: -0.049
same,log2 fold change,sotrastaurin,inactive: 0.086
ITPR3 (UniProt Q14573),log2 fold change,[4],inactive: 0.046
same,log2 fold change,volasertib,inactive: -0.004
same,log2 fold change,sotrastaurin,inactive: 0.207
JPT2 isoform 2 (UniProt Q9H910),log2 fold change,barasertib,inactive: 0.119
same,log2 fold change,[2],inactive: 0.032
same,log2 fold change,[3],inactive: 0.001
same,log2 fold change,saracatinib,inactive: -0.183
KANSL2 (UniProt Q9H9L4),log2 fold change,[1],inactive: -0.093
same,log2 fold change,sotrastaurin,inactive: -0.02
NA (UniProt J3KR12),log2 fold change,vemurafenib,inactive: 0.131
same,log2 fold change,[5],inactive: -0.021
same,log2 fold change,[2],inactive: -0.144
same,log2 fold change,[3],inactive: -0.096
JUNB (UniProt P17275),log2 fold change,[2],inactive: 0.035
same,log2 fold change,[3],inactive: 0.038
same,log2 fold change,saracatinib,inactive: 0.214
same,log2 fold change,sotrastaurin,inactive: 0.085
JCHAIN (UniProt P01591),log2 fold change,sotrastaurin,inactive: -0.183
KCNH2 (UniProt Q12809),log2 fold change,[2],inactive: 0.231
same,log2 fold change,[3],inactive: -0.121
same,log2 fold change,sotrastaurin,inactive: -0.067
ITM2B (UniProt Q9Y287),log2 fold change,vemurafenib,inactive: 0.021
same,log2 fold change,barasertib,inactive: 0.258
same,log2 fold change,[1],inactive: -0.012
same,log2 fold change,[2],inactive: -0.141
same,log2 fold change,[3],inactive: 0.069
same,log2 fold change,saracatinib,inactive: -0.053
same,log2 fold change,sotrastaurin,inactive: -0.012
JMJD7 (UniProt P0C870),log2 fold change,[4],inactive: -0.042
same,log2 fold change,barasertib,inactive: 0.137
same,log2 fold change,[5],inactive: 0.231
same,log2 fold change,volasertib,inactive: 0.006
same,log2 fold change,[1],inactive: -0.007
same,log2 fold change,[2],inactive: -0.162
same,log2 fold change,[3],inactive: 0.043
same,log2 fold change,saracatinib,inactive: 0.109
IQCD (UniProt Q96DY2),log2 fold change,[4],inactive: 0.007
same,log2 fold change,barasertib,inactive: 0.191
same,log2 fold change,volasertib,inactive: 0.065
ITPRIP (UniProt Q8IWB1),log2 fold change,saracatinib,inactive: -0.143
ITGB1BP2 (UniProt Q9UKP3),log2 fold change,vemurafenib,inactive: 0.045
same,log2 fold change,[5],inactive: -0.07
same,log2 fold change,[2],inactive: -0.032
same,log2 fold change,[3],inactive: 0.443
same,log2 fold change,saracatinib,inactive: 0.005
ITIH3 (UniProt Q06033),log2 fold change,barasertib,inactive: 0.053
same,log2 fold change,[5],inactive: 0.194
same,log2 fold change,[1],inactive: -0.055
ITPR2 (UniProt Q14571),log2 fold change,[4],inactive: -0.044
same,log2 fold change,volasertib,inactive: 0.336
same,log2 fold change,[1],inactive: -0.222
same,log2 fold change,saracatinib,inactive: 0.088
ISL2 (UniProt Q96A47),log2 fold change,barasertib,inactive: -0.108
same,log2 fold change,[1],inactive: 0.018
same,log2 fold change,[2],active: 0.832
same,log2 fold change,[3],active: -0.397
same,log2 fold change,saracatinib,inactive: 0.028
same,log2 fold change,sotrastaurin,inactive: -0.107
ISG20 (UniProt Q96AZ6),log2 fold change,barasertib,inactive: 0.087
same,log2 fold change,saracatinib,inactive: 0.073
JUN (UniProt P05412),log2 fold change,[4],inactive: -0.054
same,log2 fold change,[5],inactive: -0.033
same,log2 fold change,volasertib,inactive: 0.004
same,log2 fold change,[1],inactive: -0.065
same,log2 fold change,saracatinib,inactive: -0.035
same,log2 fold change,sotrastaurin,inactive: 0.073
IRS2 (UniProt Q9Y4H2),log2 fold change,[4],inactive: 0.026
same,log2 fold change,barasertib,inactive: -0.019
same,log2 fold change,volasertib,inactive: -0.073
same,log2 fold change,[1],inactive: 0.047
same,log2 fold change,[2],inactive: -0.698
same,log2 fold change,[3],inactive: 0.341
same,log2 fold change,saracatinib,inactive: 0.013
same,log2 fold change,sotrastaurin,inactive: -0.025
KBTBD6 (UniProt Q86V97),log2 fold change,[2],inactive: 0.09
same,log2 fold change,[3],inactive: -0.021
same,log2 fold change,sotrastaurin,inactive: 0.139

# Retrieved one by one from the list above:
target,measurement,setting,value
KANSL1 (UniProt Q7Z3B3),log2 fold change,saracatinib,inactive: -0.116
KCNH2 (UniProt Q12809),log2 fold change,[3],inactive: -0.121
KCTD13 (UniProt Q8WZ19),log2 fold change,[1],inactive: -0.143

# A second format for some results above:
target | measurement | setting | value
ITGB1BP2 (UniProt Q9UKP3) | log2 fold change | [5] | inactive: -0.07
same | log2 fold change | [2] | inactive: -0.032
same | log2 fold change | [3] | inactive: 0.443
same | log2 fold change | saracatinib | inactive: 0.005
